# These are yes or no findings as the source states them, for the method shown. In cells and extracts the contact can be indirect. Some entries that bind do so weakly or less than the wild type. For part of these data: Where a sequence is shown, tags or fusion partners need not be part of it.
# The chains behind the UniProt entries cited, without tags or fusion partners.
# UniProt P35579: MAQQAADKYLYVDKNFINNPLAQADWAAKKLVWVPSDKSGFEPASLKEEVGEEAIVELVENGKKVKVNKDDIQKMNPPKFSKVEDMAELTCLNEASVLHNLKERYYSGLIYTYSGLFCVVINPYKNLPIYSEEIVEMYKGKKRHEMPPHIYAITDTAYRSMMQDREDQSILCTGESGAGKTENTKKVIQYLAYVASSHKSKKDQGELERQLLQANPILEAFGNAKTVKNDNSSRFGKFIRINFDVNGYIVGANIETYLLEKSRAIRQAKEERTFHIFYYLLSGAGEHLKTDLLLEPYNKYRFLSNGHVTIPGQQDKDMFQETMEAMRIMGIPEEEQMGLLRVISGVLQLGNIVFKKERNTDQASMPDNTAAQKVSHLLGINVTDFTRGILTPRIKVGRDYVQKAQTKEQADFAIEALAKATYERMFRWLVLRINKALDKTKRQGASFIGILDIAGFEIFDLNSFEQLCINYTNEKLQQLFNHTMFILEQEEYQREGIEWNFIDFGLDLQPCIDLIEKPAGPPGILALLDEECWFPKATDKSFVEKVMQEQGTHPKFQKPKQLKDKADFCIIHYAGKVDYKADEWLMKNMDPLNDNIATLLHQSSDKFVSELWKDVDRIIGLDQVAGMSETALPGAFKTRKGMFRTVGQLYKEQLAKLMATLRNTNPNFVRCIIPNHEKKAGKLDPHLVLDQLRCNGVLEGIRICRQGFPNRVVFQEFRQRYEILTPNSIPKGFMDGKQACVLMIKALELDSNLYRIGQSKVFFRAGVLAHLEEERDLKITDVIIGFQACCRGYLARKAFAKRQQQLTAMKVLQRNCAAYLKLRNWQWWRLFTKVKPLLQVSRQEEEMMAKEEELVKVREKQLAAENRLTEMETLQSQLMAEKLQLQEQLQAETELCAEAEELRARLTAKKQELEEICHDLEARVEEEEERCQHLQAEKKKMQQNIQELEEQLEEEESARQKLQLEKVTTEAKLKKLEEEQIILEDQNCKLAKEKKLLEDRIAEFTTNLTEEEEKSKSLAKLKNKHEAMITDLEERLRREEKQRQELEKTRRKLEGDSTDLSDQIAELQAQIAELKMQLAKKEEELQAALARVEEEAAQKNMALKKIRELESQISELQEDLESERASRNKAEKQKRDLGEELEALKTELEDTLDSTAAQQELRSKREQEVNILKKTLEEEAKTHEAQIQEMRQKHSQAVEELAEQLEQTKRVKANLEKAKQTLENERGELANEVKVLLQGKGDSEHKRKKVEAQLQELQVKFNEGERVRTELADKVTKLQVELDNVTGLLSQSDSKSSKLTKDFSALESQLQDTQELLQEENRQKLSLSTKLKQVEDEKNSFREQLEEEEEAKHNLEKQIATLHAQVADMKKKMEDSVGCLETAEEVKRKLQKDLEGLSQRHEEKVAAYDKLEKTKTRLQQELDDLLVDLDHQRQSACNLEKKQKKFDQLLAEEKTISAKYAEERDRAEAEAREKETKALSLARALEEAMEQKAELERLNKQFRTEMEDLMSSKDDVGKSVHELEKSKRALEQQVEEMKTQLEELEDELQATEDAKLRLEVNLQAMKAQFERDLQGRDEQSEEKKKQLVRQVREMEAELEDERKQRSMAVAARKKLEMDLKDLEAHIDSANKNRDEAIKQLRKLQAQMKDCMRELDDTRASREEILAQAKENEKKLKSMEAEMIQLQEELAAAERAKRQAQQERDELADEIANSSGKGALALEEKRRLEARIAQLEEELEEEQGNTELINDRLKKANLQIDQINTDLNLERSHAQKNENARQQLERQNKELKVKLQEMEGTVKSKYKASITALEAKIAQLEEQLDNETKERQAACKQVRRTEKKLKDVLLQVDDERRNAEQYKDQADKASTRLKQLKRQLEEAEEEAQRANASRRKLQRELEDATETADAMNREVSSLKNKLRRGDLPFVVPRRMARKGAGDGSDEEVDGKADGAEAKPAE
# UniProt P49841: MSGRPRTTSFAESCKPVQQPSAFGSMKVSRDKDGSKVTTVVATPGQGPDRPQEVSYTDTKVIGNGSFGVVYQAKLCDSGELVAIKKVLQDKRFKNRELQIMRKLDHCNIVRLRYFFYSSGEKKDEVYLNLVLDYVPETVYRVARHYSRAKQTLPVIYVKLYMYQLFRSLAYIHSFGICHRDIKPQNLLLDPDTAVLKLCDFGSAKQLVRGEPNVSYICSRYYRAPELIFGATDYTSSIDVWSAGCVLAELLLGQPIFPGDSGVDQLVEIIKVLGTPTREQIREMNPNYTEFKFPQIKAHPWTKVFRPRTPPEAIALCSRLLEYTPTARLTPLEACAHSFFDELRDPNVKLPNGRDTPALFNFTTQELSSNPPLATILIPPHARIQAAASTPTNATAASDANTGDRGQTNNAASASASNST
# Experiments:
# [1] = target: MYH9 (human (endogenous in LY1 and LY3)) (UniProt P35579); assay: co-IP; endogenous proteins of LY1 and LY3 cells, Pierce Co-Immunoprecipitation Kit with antibodies to PTGDS, MYH9 or GSK3-β, western blotting
# [2] = target: T1, Glycoprotein prostaglandin D2 synthase (PTGDS) (human (endogenous in LY1 and LY3)) (UniProt P41222); assay: as above
# T1 sequence (chain, N-glycosylation at Asn51 and Asn78): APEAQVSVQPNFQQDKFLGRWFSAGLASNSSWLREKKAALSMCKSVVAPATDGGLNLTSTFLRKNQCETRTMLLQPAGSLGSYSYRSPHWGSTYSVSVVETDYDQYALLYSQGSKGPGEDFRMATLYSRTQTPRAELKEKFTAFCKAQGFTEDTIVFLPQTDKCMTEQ
Substance,binding [1],binding [2]
GSK3-β (from UniProt P49841 1-420),binds,no binding
MYH9 (from UniProt P35579 1-1960),–,binds

# Source: PMC8901925
